A short description of this data set: physchem. To be noted: buffer, pH 6.8.

Molecules are shown by their SMILES. Converted amounts (≈) assume the structure as drawn.

In general, solubility (thermodynamic) refers to the concentration in solution at equilibrium with solid. `C[C@@H]1OCC2(CCN(c3nc4[nH]nc(-c5cccc(Cl)c5Cl)c4c(=O)n3C)CC2)[C@@H]1N` showed a thermodynamic solubility of 420 µM (≈ 195 µg/mL).

The record behind these values is ChEMBL document CHEMBL4411333, “Optimization of Fused Bicyclic Allosteric SHP2 Inhibitors” (J Med Chem, 2019).
